These are yes or no findings as the source states them, for the method shown. Binding seen in cells or lysates may run through a third protein. A yes stands for co-enrichment or nearness to the bait. Other partners may have been found. For some of these results: A no says only that the protein was not detected with the bait. For some of these results: Tags and fused reporters may be left off the sequences shown.
molecular target: MBP-B55α (Xenopus) (UniProt Q6IRD3); assay: affinity purification with mass spectrometry; about 10 μg MBP-B55 on amylose beads (20 μl) incubated in interphase Xenopus egg extracts (40 μl), 30 min, room temperature; beads washed, eluted, SDS-PAGE, mass spectrometry; control beads without protein; proteins with a single peptide removed; only the target purified

The chains behind the UniProt entries cited, without tags or fusion partners.
UniProt Q01588: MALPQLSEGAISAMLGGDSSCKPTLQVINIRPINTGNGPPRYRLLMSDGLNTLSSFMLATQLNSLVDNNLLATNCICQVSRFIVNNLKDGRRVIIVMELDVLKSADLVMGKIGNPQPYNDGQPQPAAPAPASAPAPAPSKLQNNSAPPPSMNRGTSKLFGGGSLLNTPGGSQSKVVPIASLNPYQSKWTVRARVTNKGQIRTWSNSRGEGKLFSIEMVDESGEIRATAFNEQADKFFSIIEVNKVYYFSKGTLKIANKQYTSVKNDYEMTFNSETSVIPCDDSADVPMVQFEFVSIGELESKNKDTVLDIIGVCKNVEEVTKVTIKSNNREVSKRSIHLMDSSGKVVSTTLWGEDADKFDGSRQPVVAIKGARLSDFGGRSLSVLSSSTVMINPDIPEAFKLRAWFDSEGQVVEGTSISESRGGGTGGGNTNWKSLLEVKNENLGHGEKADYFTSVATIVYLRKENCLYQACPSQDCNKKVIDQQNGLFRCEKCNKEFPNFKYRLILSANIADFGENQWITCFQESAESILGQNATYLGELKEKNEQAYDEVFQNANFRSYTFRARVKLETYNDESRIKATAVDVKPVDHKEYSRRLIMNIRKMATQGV
UniProt P70032: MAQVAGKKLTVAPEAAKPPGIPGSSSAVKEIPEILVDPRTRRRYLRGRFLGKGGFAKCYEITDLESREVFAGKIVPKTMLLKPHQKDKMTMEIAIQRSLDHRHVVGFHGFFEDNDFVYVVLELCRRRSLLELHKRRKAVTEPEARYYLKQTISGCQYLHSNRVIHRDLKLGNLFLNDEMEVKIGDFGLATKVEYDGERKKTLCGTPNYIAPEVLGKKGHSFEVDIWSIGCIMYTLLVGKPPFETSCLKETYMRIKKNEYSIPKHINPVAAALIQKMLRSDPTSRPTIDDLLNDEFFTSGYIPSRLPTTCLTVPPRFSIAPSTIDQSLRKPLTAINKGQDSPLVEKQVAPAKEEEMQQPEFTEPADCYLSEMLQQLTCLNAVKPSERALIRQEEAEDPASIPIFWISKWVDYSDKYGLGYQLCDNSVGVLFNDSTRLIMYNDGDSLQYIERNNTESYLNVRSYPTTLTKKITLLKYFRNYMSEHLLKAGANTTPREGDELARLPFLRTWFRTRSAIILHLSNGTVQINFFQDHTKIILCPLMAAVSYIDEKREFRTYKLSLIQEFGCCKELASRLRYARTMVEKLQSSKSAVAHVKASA
UniProt Q6NTJ3: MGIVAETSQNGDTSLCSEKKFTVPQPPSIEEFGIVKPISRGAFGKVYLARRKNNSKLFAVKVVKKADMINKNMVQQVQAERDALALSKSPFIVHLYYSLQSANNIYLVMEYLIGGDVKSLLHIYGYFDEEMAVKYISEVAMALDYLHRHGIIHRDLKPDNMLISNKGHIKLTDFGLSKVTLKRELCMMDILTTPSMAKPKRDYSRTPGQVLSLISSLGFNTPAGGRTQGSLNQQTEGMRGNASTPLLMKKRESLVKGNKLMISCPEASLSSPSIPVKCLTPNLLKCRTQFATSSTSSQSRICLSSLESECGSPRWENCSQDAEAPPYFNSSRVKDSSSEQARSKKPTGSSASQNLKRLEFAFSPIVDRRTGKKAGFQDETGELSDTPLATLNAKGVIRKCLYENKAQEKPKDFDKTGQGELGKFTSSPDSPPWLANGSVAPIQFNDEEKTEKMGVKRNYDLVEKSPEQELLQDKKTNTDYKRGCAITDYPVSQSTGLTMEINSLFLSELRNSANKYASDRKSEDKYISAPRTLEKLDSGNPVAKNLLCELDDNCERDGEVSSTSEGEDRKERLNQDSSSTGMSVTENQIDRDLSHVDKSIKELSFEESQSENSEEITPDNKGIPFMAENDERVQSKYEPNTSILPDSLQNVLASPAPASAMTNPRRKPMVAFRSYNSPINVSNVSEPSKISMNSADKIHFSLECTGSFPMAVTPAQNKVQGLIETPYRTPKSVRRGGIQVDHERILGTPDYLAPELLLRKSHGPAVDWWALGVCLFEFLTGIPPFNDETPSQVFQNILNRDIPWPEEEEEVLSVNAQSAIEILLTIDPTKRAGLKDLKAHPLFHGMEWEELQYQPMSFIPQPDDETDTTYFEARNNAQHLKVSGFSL
UniProt P50533: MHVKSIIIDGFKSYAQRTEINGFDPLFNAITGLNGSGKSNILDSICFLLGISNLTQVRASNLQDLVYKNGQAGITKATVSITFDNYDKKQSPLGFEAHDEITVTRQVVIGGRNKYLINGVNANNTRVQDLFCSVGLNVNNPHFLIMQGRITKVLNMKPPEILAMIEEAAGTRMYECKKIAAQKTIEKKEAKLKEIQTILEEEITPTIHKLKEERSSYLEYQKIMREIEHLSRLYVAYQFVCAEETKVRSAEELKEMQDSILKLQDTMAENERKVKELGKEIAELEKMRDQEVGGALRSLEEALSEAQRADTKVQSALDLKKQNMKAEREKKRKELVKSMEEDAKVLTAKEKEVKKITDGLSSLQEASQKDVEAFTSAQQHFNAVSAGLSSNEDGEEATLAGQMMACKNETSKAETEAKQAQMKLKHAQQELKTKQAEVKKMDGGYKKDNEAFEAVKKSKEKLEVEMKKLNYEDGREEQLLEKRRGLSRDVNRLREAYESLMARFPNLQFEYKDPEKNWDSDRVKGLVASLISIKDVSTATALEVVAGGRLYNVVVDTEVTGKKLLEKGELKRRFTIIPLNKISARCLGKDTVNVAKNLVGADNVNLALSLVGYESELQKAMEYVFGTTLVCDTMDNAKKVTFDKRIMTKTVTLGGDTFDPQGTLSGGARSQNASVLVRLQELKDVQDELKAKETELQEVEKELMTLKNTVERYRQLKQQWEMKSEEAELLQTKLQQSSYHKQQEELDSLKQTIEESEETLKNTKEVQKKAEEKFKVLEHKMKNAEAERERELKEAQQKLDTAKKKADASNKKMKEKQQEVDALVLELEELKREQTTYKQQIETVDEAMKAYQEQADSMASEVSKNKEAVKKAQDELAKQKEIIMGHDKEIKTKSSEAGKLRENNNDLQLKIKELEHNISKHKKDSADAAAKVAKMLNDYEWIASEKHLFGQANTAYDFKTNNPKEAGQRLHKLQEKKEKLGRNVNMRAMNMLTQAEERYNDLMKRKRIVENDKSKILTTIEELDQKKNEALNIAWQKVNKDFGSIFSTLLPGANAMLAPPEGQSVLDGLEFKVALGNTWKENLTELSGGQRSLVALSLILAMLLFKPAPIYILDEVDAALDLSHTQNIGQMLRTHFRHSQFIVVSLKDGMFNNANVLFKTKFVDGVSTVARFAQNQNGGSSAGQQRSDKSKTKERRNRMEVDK

Row | Substance | binding
1 | RPA1 (from UniProt Q01588 1-609) | binds
2 | mitotic kinase Plk1 (from UniProt P70032 1-598) (enzyme) | binds
3 | mitotic kinase Mastl (from UniProt Q6NTJ3 1-887) (enzyme) | binds
4 | Condensin subunit Smc2 (from UniProt P50533 1-1203) | no binding

molecular target: T1, MBP-B55β (Xenopus) (UniProt A1L3L9); assay: as above
T1 sequence: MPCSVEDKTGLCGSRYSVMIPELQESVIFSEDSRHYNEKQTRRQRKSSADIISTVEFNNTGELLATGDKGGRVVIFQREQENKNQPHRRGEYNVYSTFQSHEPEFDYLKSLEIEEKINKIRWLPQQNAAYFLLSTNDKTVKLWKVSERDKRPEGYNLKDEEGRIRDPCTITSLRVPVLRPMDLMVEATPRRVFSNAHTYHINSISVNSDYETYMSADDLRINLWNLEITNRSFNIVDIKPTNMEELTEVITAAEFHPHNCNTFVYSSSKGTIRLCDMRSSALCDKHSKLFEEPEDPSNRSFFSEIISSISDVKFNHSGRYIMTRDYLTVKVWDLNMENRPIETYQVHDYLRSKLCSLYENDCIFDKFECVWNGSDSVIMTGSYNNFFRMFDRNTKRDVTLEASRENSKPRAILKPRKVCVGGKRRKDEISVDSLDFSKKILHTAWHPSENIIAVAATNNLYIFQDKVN

Row | Substance | binding
5 | RPA1 (from UniProt Q01588 1-609) | binds
6 | Aurora-B (Xenopus (endogenous in egg extracts)) (enzyme) | binds
7 | Condensin subunit Smc2 (from UniProt P50533 1-1203) | binds
